Percent effect of library compounds

By UniProt entry, the sequences of proteins in these tests, tags left out. Residues count along the entry.
UniProt P9WFT3, whole entry: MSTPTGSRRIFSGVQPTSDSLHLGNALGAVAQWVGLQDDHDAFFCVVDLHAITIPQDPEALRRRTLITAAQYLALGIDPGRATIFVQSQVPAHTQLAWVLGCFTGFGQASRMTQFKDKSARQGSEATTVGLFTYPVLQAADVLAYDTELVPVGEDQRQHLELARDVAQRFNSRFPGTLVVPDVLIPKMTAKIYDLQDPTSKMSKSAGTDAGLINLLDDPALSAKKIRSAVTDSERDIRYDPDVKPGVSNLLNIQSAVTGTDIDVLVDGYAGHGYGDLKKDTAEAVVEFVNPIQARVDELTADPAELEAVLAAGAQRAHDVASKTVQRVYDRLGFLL
UniProt I6X8D2, whole entry: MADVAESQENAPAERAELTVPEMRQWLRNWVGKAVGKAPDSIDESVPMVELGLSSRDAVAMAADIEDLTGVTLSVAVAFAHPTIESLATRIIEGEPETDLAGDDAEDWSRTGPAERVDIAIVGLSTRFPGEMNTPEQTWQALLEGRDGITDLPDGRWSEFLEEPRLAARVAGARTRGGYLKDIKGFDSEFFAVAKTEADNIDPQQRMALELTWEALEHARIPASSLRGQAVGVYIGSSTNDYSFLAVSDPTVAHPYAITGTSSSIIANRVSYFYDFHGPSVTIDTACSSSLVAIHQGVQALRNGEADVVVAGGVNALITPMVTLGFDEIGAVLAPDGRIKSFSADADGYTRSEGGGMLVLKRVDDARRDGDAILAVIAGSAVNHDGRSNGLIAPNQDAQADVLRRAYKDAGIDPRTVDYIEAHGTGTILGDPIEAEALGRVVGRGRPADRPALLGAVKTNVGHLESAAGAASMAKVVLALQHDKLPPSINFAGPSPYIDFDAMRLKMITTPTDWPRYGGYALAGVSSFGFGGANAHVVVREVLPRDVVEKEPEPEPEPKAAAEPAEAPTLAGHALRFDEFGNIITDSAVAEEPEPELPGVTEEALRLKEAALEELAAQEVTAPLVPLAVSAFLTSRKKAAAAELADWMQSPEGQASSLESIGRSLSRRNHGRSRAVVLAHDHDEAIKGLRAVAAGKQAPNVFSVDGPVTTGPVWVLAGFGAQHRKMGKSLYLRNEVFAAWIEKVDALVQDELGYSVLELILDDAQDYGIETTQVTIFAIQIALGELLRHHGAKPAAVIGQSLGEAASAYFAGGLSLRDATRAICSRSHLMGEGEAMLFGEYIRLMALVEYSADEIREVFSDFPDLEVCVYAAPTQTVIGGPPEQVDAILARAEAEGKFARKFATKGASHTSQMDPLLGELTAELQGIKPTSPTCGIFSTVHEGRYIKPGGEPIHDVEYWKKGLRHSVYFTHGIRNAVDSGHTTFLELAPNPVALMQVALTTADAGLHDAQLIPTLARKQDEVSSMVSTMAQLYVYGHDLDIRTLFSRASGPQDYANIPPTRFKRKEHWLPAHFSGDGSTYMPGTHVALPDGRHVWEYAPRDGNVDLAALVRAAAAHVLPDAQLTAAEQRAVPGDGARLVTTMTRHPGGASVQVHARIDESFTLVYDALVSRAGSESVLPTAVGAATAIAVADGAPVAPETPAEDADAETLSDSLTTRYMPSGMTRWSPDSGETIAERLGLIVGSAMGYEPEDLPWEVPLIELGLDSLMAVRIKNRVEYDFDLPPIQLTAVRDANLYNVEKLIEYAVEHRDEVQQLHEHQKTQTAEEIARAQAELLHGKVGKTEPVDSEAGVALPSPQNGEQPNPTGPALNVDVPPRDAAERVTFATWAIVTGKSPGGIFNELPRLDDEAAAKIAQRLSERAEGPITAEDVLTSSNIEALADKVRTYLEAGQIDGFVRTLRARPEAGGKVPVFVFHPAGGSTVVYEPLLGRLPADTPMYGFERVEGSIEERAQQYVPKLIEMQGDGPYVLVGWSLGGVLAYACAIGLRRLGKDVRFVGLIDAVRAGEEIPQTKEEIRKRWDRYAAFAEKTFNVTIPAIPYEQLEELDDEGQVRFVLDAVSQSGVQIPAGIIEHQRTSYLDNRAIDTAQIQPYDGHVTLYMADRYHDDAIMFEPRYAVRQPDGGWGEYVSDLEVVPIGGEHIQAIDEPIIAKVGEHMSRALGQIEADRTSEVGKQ
UniProt A4I591, 1-473: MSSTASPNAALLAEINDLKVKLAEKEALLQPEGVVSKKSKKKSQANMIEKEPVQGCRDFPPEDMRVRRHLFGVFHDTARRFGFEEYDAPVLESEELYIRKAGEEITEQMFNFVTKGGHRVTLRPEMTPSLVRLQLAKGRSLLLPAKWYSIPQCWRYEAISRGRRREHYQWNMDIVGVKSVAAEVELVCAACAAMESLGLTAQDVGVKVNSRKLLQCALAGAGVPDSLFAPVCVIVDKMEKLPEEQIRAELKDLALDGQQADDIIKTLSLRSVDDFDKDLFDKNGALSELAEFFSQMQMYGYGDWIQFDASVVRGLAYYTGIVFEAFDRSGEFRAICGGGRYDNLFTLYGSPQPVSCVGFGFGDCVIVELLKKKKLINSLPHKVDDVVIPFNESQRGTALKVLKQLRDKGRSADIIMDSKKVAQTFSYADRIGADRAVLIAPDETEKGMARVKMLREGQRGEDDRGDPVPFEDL
UniProt Q4DA54, 1-478: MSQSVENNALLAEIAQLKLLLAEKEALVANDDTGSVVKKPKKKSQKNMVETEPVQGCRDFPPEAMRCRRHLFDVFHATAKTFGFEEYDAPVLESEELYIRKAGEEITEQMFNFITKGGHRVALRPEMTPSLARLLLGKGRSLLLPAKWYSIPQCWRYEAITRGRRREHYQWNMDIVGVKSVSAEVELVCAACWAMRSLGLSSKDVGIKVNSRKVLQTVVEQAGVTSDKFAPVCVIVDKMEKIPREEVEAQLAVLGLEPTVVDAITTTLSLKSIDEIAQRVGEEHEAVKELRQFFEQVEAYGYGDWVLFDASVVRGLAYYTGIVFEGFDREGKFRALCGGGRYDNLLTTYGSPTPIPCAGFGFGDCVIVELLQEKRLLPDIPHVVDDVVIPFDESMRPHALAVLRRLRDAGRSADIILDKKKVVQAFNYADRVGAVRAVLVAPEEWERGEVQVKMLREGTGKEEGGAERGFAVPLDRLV

The values are deposited in ChEMBL (CHEMBL3988442, “University of Dundee, Small-Polar-MMV Screening Library” (2021)).

A: 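Enzyme assay of tryptophanyl-tRNA synthetase; the read-out is not stated. Target: Tryptophan-tRNA ligase, Mycobacterium tuberculosis (UniProt P9WFT3). Tested at 10 µM. Direction is not recorded; retested compounds ran higher, which suggests that high means inhibition. Of about 65,000 compounds tested this way, about 64 (0.098%) reached 50% or more in at least one test.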
B: 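Polyketide synthase Pks13, Mycobacterium tuberculosis (UniProt I6X8D2). Enzyme assay of the thioesterase domain of polyketide synthase 13; the read-out is not stated. Compounds at 30 µM. Higher reads as stronger inhibition (inferred from which compounds were picked for retests). Size under these conditions: about 67,000 compounds, about 300 of them at 50% or above in at least one test.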
C: 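Histidine-tRNA ligase, Leishmania infantum (UniProt A4I591). Enzyme assay of histidyl-tRNA synthetase; the read-out is not stated. Concentration: 30 µM. Direction is inferred from retests: higher values go with stronger inhibition. The assay is labelled LdHisRS but filed under L. infantum. About 69,000 compounds were tested under these conditions; 0.6% (about 410) showed 50% or more at least once.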
D: 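Histidine-tRNA ligase, Trypanosoma cruzi CL Brener (UniProt Q4DA54). Enzyme assay of histidyl-tRNA synthetase; the read-out is not stated. Compounds at 30 µM. Higher reads as stronger inhibition (inferred: compounds with an IC50 in retests scored well above the rest). Size under these conditions: about 69,000 compounds, about 31 of them at 50% or above in at least one test.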

Values are the deposited “Percent Effect”, in %. The controls that fix the scale are not given in the record; negative values are as filed. The compounds are a random part of those screened.

structure: Cc1cc(C)cc(C2(C(=O)NCC3CCN(CC(F)(F)F)C3)CC2)c1 (stereo not shown)
A: -5.356
B: -3.575
C: 11.61
D: 4.046

structure: Cn1cc(NC(=O)N2CCC(OCc3ccccc3)CC2)ccc1=O
A: 3.476
B: 6.787
C: 102.8
D: 9.677

structure: CCn1cc(S(=O)(=O)N2CCCC3(CC=CNC3=O)C2)c(C)n1 (stereo not shown)
A: -4.008
B: -5.832
C: 11.27
D: 10

structure: Cn1nc(CN2CCOCC2)c2c1CN(C(=O)c1ccc[nH]1)C2
A: -0.07052
B: -37.7
C: 17.95
D: 2.674

structure: Cc1cc(CN2CCN(C(=O)NC(C)Cn3ccnc3)CC2)on1 (stereo not shown)
A: 14.38
B: -19.81
C: 1.786
D: 2.367

structure: O=C1CN(Cc2ccc3ccccc3n2)CCN1C1CCCC1
A: -6.726
B: -0.5194
C: 18.31
D: 10

structure: CC(C)c1nn(C)c(N2CCOCC2)c1CNC(C)c1cccs1 (stereo not shown)
A: -0.2924
B: -7.967
C: 34.85
D: 1.515

structure: Cc1ccc(O)c(CNc2cccc(OCCF)c2)n1
A: -4.078
B: -24.43
C: 28.92
D: 12.71

structure: Cc1cnn(CC2CN(CC(=O)Nc3c(C)nn(C)c3C)CCO2)c1 (stereo not shown)
A: -3.155
B: -7.103
C: 16.85
D: 10.88

structure: CNc1cc(C)nc(NC2CCCN(C3Cc4ccccc4C3)C2)n1 (stereo not shown)
A: -3.473
B: -13.31
C: -14.17
D: 3.865

structure: CCC(C)C(=O)NCc1cccc(OCCN(C)C2CCOCC2)c1 (stereo not shown)
A: 8.73
B: 11.82
C: -4.11
D: 9.852

structure: O=C(N1CCCC1)N1CC[C@H]2OCC[C@@]2(COc2ncccc2F)C1
A: -6.032
B: 22.18
C: 6.579
D: 2.174

structure: Cc1nn(C)c(C)c1CCC(=O)Nc1cn(C)c(=O)n(C)c1=O
A: -4.68
B: -7.136
C: 13.7
D: 2.105

structure: CNC(=O)NC(=O)CCN1CCN(c2nccs2)CC1
A: 10.38
B: -10.1
C: 5.357
D: 1.153

structure: COc1cc(C)nc(N2CCN(C(=O)c3ccc(Cl)o3)CC2)n1
A: -0.3912
B: -2.769
C: 19.05
D: 1.504

structure: CN1CCC(c2cccc(C(=O)N(C)C)n2)CC1
A: -3.872
B: -1.035
C: 12.68
D: 5.385

structure: CC(C)c1nn(C)c(N(C)C)c1CNCCC(=O)NC1CCCCC1
A: 19.3
B: -23.37
C: 8.036
D: 4.046

structure: CC(NC(=O)Cc1ccccc1F)(C(N)=O)c1cccc(Cl)c1 (stereo not shown)
A: 1.152
B: -72.91
C: 11.9
D: 8.911

structure: CC(C)c1nc2c(n1C)CCN(Cc1nc(-c3ccoc3)no1)C2
A: -1.83
B: 5.44
C: 23.64
D: 10.53